Assay results published in PubChem BioAssay AID1487 (National Center for Advancing Translational Sciences (NCATS), 2009).
This is one part of the list. Further columns of the screen follow, without active or inactive calls. Most of these compounds were active or inconclusive in the main read-out, so they are no random draw. The note in brackets gives the kind of curve behind each potency; many fits are weak.

Test: qHTS Assay for Modulators of Lamin A Splicing
Settings: HeLa LMNA splicing GFP/RFP minigene ratio, 48 h
Outline: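 S3 HeLa cells stably expressing lamin A-EGFP splicing minigene plus DsRed2, 600 cells/well, 48 h compound exposure at 37C. Laser-scanning cytometry; analysed as GFP (500-530 nm)/RFP (575-640 nm) total intensity ratio; 0.5% DMSO vehicle.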

[1] = measured here: RFP viability control channel
[2] = measured here: GFP splicing reporter channel

SMILES	AC50 [1]	AC50 [2]
Cc1ccccc1Nc1nc(N)nc(CSc2nc3ccccc3c(=O)n2C)n1	22.4 µM [rising, single point]	
CCc1nc2ccc(C(=O)NCCc3ccc(OC)cc3OC)cc2nc1CC	1.12 µM [falling, full curve, poor fit]	
CCOc1ccc(C(=O)NCCn2cc(SCC(=O)Nc3cc(C)on3)c3ccccc32)cc1	5.62 µM [falling, single point]	
Cn1cc(CC(=O)NCCCN2CCOCC2)c2ccccc21	1.26 µM [rising, single point]	0.631 µM [rising, partial curve, poor fit]
Cc1ccc(CNC(=O)CCc2ccc(S(=O)(=O)NC3CCCCC3)cc2)cc1	3.55 µM [rising, single point]	
O/N=C1/CCc2cccc3cccc1c23	35.5 µM [rising, single point]	28.2 µM [rising, single point]
Cn1nc(C(=O)OCC(=O)c2ccc[nH]2)c2ccccc2c1=O	0.0631 µM [falling, full curve, poor fit]	
COc1ccc(NCC(=O)N/N=C/C=C/c2ccccc2[N+](=O)[O-])cc1	3.16 µM [rising, single point]	
CCOC(=O)c1c(C)[nH]c(C)c1S(=O)(=O)N(C)CC(=O)N1CCN(c2cccc(Cl)c2)CC1		22.4 µM [falling, partial curve]
COc1ccc(OC)c(NC(=O)c2cccc(C)c2[N+](=O)[O-])c1	0.0224 µM [falling, full curve, poor fit]	0.0251 µM [falling, full curve, poor fit]
CCOC(=O)c1c(C)[nH]c(C(=O)NCc2ccco2)c1C		0.141 µM [rising, full curve, poor fit]
CCNCCNC(=O)c1c(O)c2cccc3c2n(c1=O)CCC3		31.6 µM [rising, single point]
CCCCOC(=O)C1=C(C)Nc2ncnn2C1c1ccc(OC)c(OC)c1 (centres undefined)	6.31 µM [falling, partial curve, poor fit]	2.82 µM [falling, single point]
CCC(=O)N1c2ccccc2C(N(C(C)=O)c2ccccc2)CC1C (centres undefined)	20 µM [rising, single point]	
CCOc1cc(CNCc2ccncc2)cc(Br)c1OCc1ccc(F)cc1	15.8 µM [rising, single point]	11.2 µM [rising, single point]
O=C(c1ccc(S(=O)(=O)N2CCCC2)cc1)N1CCCc2ccccc21	22.4 µM [rising, partial curve, poor fit]	
CCCCc1nn2c(=O)cc(COC(=O)c3cccs3)nc2s1	0.00891 µM [falling, full curve, poor fit]	0.01 µM [falling, full curve, poor fit]
CCN(CC)S(=O)(=O)c1ccc(C(=O)Nc2nnc(COC)o2)cc1		11.2 µM [falling, partial curve]
CCOC(=O)c1cc(C)n(Cc2ccc(OCC)c(OC)c2)c1C	35.5 µM [rising, single point]	
O=c1c(-c2ccccc2)nc2cnc(Oc3cccc(Cl)c3)nc2n1C[C@H]1CCCO1		0.224 µM [falling, partial curve]
Nc1cc(=O)[nH]c(SCC(=O)NNC(=O)Cc2ccccc2)n1	0.00316 µM [falling, full curve, poor fit]	0.00316 µM [falling, full curve, poor fit]
Cn1cc([N+](=O)[O-])c(C(=O)Nc2ccc(Br)cn2)n1	25.1 µM [falling, single point]	12.6 µM [falling, partial curve]
Cc1ccc(NC(=O)CSC2=C(C#N)C(c3ccco3)C3=C(CC(C)(C)CC3=O)N2)cc1 (centres undefined)	17.8 µM [rising, single point]	
Cc1ccc(C(=O)c2c[nH]c3c(F)cc(F)cc3c2=O)cc1	3.55 µM [rising, full curve, poor fit]	
CC1=C(C(=O)N(C)Cc2ccccc2)C2(CCC(C)CC2)OC1=O (centres undefined)	25.1 µM [rising, single point]	
CCOc1cccc(C(=O)Nc2cccc(NC(=O)c3ccco3)c2)c1	22.4 µM [falling, single point]	14.1 µM [falling, single point]
CC(C)n1c(NCCc2ccccc2)nc2c1c(=O)n(C)c(=O)n2C	12.6 µM [rising, partial curve]	7.94 µM [rising, partial curve]
COc1cccc(Nc2ncc3ncc(=O)n(Cc4cccs4)c3n2)c1	10 µM [falling, partial curve]	8.91 µM [falling, partial curve]

An excerpt of these results, as a markdown table.

| SMILES | AC50 [1] | AC50 [2] |
| --- | --- | --- |
| CCN(CC)S(=O)(=O)c1ccc(C(=O)Nc2nnc(COC)o2)cc1 |  | 11.2 µM [falling, partial curve] |
| CCOC(=O)c1cc(C)n(Cc2ccc(OCC)c(OC)c2)c1C | 35.5 µM [rising, single point] |  |
| O=c1c(-c2ccccc2)nc2cnc(Oc3cccc(Cl)c3)nc2n1C[C@H]1CCCO1 |  | 0.224 µM [falling, partial curve] |
| Nc1cc(=O)[nH]c(SCC(=O)NNC(=O)Cc2ccccc2)n1 | 0.00316 µM [falling, full curve, poor fit] | 0.00316 µM [falling, full curve, poor fit] |
| Cn1cc([N+](=O)[O-])c(C(=O)Nc2ccc(Br)cn2)n1 | 25.1 µM [falling, single point] | 12.6 µM [falling, partial curve] |
| Cc1ccc(NC(=O)CSC2=C(C#N)C(c3ccco3)C3=C(CC(C)(C)CC3=O)N2)cc1 (centres undefined) | 17.8 µM [rising, single point] |  |
